No constants are given. Whether binding was seen depends on the method and setting. Some results given as binding are weak or reduced against the parent protein; the word gives no strength.
Tests used:
human CD151 (human) [1] = target: T1, human CD151 (human) (UniProt P48509); assay: Western blot of HT-29 cell lysate and human lung, pancreas and colon tissue lysates, non-reductive conditions
T1 sequence (looked up): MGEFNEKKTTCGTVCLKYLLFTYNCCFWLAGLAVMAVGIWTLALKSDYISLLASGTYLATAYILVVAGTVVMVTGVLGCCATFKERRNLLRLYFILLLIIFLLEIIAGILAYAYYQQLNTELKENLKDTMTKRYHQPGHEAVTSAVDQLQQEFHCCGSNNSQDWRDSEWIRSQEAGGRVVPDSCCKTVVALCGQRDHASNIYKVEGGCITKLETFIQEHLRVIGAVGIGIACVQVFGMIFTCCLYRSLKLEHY

human CD151 (human) [2] = target: T1, human CD151 (human); assay: immunoprecipitation from a Brij 97 lysate of HeLa cells
human CD151 (human) [3] = target: T1, human CD151 (human); assay: Western blot (FIG. 8)

Measured: binding

B1: TS151r antibody (antibody, mouse IgG1, V domains shown)
VH: QVQLQQPGSVVVRPGASVKLSCKASGYTFTSSWMHWAKQRPGQGLEWIGQIHPNSGNTNYNEKFKVKATLTIDTSSSTAYVDLNSLTSGDSAVYYCARGDDAYYSGLYAMDYWGQGTSVTVSS
VL: DIVLTQSPASLAVSLGQRATISCRASQSVSTSRYSYMHWYQQIQGQPPKLLIKYASNLESGVPARFSGSGSGTDFTLNIHPVEEEDTATYHCQHSWEIPYTFGGGTTLEIK
notes: Murine monoclonal from a hybridoma
binds: all assays above

Reference: patent publication US20090324600A1 (PIERRE FABRE MEDICAMENT, published 2009)
